This note sets out measurements from publication doi:10.1101/591909.

Chains of the proteins cited; added tags and fusions are not shown. Residues count along the entry.
UniProt P15209, residues 32-821: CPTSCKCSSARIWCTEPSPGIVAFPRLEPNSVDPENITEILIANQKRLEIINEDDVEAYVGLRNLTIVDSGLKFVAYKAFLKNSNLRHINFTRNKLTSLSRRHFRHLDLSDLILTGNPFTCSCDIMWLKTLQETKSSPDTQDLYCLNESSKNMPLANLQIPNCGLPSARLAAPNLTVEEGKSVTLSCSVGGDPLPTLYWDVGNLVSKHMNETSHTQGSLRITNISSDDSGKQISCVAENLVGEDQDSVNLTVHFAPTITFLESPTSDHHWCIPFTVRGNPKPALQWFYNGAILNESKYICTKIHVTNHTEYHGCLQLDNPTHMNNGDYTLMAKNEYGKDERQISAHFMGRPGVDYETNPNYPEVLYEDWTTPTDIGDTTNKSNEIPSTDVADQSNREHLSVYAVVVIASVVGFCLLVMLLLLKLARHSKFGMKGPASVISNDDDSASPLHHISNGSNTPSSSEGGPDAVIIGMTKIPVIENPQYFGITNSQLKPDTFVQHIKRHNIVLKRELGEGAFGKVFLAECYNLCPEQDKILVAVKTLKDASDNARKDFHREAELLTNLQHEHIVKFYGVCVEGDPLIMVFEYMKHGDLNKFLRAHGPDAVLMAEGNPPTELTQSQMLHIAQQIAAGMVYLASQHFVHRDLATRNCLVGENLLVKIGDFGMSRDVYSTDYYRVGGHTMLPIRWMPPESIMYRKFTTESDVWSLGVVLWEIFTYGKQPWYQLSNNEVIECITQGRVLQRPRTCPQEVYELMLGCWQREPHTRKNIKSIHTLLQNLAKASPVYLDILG
UniProt P17427: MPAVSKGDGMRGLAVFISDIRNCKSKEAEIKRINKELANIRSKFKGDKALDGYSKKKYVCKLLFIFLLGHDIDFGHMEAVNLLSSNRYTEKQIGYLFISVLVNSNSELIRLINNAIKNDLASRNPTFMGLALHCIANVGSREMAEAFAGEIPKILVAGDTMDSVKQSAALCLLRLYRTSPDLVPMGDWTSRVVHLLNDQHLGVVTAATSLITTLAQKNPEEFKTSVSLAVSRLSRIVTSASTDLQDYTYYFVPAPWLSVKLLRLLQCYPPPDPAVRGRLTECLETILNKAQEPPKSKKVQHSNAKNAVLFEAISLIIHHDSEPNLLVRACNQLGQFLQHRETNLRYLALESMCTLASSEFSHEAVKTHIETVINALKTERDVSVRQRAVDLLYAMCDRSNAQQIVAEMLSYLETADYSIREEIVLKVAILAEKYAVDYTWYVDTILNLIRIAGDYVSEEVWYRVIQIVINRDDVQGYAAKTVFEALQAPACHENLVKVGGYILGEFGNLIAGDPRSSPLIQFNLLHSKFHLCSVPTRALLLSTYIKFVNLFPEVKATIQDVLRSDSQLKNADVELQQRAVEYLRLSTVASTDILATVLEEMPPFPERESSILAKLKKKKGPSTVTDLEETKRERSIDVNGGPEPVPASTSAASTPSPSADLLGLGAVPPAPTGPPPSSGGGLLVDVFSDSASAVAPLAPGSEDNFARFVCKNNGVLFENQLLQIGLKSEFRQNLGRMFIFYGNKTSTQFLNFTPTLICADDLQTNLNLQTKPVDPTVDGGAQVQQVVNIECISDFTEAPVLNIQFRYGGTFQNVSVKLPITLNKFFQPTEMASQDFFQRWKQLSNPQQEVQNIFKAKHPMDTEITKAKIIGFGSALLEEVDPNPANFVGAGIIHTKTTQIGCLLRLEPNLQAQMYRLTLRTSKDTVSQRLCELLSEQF

Like-named read-outs stand apart in the source and are kept apart here. No constants are given. Whether binding was seen depends on the method and setting. In cells and extracts the contact can be indirect. Here binding means that the protein was enriched with, or labelled near, the bait; the list need not be complete.

Assay [1] has as its target TRKB (tropomyosin-related kinase B), BDNF receptor, endogenous in mouse hippocampus (mouse (endogenous in hippocampus)) (UniProt P15209). Kind of assay: affinity purification with mass spectrometry.
Assay [2] shares this target. Kind of assay: affinity purification with mass spectrometry. The source holds these as a separate data set.

Consider “AP-2 complex subunit alpha-2 (from UniProt P17427 1-938)”, for which the binding result in assay [1] is listed as “binds”.

B1: AP3D1 (subunit of the AP-3 complex) (protein, UniProt O54774 1-1199)
chain: MALKMVKGSIDRMFDKNLQDLVRGIRNHKEDEAKYISQCIDEIKQELKQDNIAVKANAVCKLTYLQMLGYDISWAAFNIIEVMSASKFTFKRVGYLAASQCFHEGTDVIMLTTNQIRKDLSSPSQYDTGVALTGLSCFVTPDLARDLANDIMTLMSHTKPYIRKKAVLIMYKVFLKYPESLRPAFPRLKEKLEDPDPGVQSAAVNVICELARRNPKNYLSLAPLFFKLMTSSTNNWVLIKIIKLFGALTPLEPRLGKKLIEPLTNLIHSTSAMSLLYECVNTVIAVLISLSSGMPNHSASIQLCVQKLRILIEDSDQNLKYLGLLAMSKILKTHPKSVQSHKDLILQCLDDKDESIRLRALDLLYGMVSKKNLMEIVKKLMTHVDKAEGTTYRDELLTKIIDICSQSNYQHITNFEWYISILVELTRLEGTRHGHLIAAQMLDVAIRVKAIRKFAVSQMSSLLDSAHLVASSTQRNGICEVLYAAAWICGEFSEHLQGPQQTLEAMLRPKVTTLPGHIQAVYVQNVVKLYASILQQKEQAADTEAAQEVTQLLVERLPQFVQSADLEVQERASCILQLVKHVQKLQAKGVPVAEEVSALFAGELNPVAPKAQKKVPVPEGLDLDAWINEPPSDSESEDEKPKAIFHEEEPRHTRRRQPEEDEEELARRREARKQEQANNPFYIKSSPSPQKRYQDAPGVEHIPVVQIDLSVPLKVPGMPMSDQYVKLEEQRRHRQRLEKDKKRKKKEKGKRRHSSLPTESDEDIAPAQRVDIITEEMPENALPSDEDDKDPNDPYRALDIDLDKPLADSEKLPVQKHRNAEAVKSPEKEGVLGVEKKSKKPKKKEKKTKEREREKKDKKGEDLDFWLSTTPPPAAAPIPAPSTEELAASTITSPKDECEVLKGEEEDHVDHDQERKSSRHKKKKHRKEKEKEERPRDKKKAKKKQVAPLENGAAAEEEEEPIPPMSSYCLLAESPYIKVTYDIQASLQKDSQVTVSIILENQSSSFLKNMELNVLDSLNTKMTRPEGSSVHDGVPVPFQLPPGVSNEAQFVFTIQSIVMAQKLKGTLSFIAKDDEGATHEKLDFRLHFSCSSYLITTPCYSDAFAKLLESGDLSMNSIKVDGISMSFQNLLAKICFYHHFSVVERVDSCASMYSRSIQGHHVCLLVKKGESSVSVDGKCSDATLLSSLLEEMKTTLAQC
Regarding B1, the binding result in assay [2] is listed as “binds”.
